These are yes or no findings as the source states them, for the method shown. In cells and extracts the contact can be indirect. A yes stands for co-enrichment or nearness to the bait. Other partners may have been found. For some assays here: Tags and fused reporters may be left off the sequences shown. Each block holds one molecule with its values, some of them ahead of it.
Key:
TAP-SCRIB (human) [1] = target: TAP-SCRIB (human) (UniProt Q14160); experiment: affinity purification with mass spectrometry; TAP/MS; TAP-SCRIB co-expressed with ADRA1D–ΔPDZ in HEK293T cells
TAP-SCRIB (human) [2] = target: TAP-SCRIB (human) (UniProt Q14160); experiment: affinity purification with mass spectrometry; TAP/MS; TAP-SCRIB co-expressed with WT ADRA1D in HEK293T cells
TAP-SCRIB (human) [3] = target: TAP-SCRIB (human) (UniProt Q14160); experiment: affinity purification with mass spectrometry; TAP/MS; TAP-tagged bait transfected alone (or with empty vector) in HEK293T cells; TEV cleavage omitted; eluates on Velos-Pro Orbitrap Elite; protein FDR 2.5%
TAP–ADRA1D (human) [4] = target: TAP–ADRA1D (human) (UniProt P25100); experiment: affinity purification with mass spectrometry; TAP/MS; TAP–ADRA1D transfected in MCF-7 cells
TAP–ADRA1D (human) [5] = target: TAP–ADRA1D (human) (UniProt P25100); experiment: affinity purification with mass spectrometry; TAP/MS; TAP–ADRA1D transfected in A549 cells
[6] = target: T1, MAS1 (proto-oncogene MAS type I), TAP-tagged (human) (UniProt P04201); experiment: affinity purification with mass spectrometry; TAP/MS; TAP-tagged bait transfected alone (or with empty vector) in HEK293T cells; TEV cleavage omitted; eluates on Velos-Pro Orbitrap Elite; protein FDR 2.5%
T1 sequence: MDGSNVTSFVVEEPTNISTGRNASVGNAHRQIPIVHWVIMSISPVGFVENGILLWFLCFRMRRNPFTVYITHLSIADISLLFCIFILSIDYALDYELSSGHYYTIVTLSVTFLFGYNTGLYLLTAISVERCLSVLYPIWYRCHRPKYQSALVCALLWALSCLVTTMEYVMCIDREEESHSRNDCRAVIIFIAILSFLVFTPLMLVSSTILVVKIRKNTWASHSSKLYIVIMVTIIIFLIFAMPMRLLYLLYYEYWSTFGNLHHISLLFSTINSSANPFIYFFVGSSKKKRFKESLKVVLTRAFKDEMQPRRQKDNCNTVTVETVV

Chains of the proteins cited; added tags and fusions are not shown.
UniProt Q14160: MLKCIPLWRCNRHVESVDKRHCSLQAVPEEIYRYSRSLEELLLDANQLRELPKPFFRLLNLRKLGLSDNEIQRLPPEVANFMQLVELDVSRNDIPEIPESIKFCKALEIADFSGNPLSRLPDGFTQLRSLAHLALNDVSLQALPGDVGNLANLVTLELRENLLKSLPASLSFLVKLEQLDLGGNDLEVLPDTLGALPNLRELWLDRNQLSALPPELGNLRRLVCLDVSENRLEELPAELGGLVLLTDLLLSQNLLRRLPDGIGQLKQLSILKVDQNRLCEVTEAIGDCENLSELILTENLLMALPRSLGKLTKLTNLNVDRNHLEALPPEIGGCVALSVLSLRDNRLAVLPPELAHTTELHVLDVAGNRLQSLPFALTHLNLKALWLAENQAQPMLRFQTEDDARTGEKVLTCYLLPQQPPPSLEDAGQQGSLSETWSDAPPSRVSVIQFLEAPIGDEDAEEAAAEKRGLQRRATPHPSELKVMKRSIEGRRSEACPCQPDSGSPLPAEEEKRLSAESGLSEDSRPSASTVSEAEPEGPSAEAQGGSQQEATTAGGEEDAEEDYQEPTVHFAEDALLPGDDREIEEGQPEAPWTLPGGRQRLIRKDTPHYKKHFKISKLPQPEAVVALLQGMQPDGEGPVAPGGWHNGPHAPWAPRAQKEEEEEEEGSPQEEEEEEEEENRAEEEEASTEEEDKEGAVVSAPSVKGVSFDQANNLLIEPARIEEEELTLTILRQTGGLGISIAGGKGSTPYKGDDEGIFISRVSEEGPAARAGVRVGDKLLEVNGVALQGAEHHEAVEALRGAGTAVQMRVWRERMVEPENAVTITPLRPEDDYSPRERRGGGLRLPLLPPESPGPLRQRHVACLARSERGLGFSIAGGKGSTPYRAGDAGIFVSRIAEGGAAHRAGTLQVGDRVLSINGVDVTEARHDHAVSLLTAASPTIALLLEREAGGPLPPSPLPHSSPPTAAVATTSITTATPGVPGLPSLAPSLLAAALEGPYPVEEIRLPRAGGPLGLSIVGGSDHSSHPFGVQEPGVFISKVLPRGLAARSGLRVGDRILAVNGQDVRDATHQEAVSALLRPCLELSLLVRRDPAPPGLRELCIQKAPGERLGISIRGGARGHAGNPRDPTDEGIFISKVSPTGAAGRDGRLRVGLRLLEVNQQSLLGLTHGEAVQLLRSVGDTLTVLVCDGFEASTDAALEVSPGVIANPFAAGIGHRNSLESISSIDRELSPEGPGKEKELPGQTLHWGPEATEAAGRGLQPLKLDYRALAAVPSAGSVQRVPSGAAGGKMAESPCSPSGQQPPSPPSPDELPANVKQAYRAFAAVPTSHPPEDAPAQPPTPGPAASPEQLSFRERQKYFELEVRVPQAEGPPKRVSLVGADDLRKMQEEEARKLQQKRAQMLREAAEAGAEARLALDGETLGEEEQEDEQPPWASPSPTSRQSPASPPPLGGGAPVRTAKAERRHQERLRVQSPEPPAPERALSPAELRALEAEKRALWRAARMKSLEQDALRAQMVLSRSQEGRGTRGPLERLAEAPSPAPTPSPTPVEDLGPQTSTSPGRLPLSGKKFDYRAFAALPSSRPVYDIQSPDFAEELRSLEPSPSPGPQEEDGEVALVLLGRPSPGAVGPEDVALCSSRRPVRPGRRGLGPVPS
UniProt P25100: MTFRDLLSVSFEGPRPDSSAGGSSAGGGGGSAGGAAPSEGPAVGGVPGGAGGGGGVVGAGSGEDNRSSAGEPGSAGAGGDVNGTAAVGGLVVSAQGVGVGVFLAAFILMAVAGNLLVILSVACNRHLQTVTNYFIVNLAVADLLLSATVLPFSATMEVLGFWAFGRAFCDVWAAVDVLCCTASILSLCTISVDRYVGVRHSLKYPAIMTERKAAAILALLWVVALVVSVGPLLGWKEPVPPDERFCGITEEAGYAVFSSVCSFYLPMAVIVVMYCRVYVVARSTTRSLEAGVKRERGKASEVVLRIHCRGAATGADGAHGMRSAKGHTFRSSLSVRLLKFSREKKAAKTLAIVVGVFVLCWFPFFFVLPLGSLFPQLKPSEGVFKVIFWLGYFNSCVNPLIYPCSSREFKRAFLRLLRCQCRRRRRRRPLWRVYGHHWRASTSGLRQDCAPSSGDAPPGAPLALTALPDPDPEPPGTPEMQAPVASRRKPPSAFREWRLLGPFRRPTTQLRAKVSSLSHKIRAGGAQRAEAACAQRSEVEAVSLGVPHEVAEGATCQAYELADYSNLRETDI
UniProt Q9Y2X7: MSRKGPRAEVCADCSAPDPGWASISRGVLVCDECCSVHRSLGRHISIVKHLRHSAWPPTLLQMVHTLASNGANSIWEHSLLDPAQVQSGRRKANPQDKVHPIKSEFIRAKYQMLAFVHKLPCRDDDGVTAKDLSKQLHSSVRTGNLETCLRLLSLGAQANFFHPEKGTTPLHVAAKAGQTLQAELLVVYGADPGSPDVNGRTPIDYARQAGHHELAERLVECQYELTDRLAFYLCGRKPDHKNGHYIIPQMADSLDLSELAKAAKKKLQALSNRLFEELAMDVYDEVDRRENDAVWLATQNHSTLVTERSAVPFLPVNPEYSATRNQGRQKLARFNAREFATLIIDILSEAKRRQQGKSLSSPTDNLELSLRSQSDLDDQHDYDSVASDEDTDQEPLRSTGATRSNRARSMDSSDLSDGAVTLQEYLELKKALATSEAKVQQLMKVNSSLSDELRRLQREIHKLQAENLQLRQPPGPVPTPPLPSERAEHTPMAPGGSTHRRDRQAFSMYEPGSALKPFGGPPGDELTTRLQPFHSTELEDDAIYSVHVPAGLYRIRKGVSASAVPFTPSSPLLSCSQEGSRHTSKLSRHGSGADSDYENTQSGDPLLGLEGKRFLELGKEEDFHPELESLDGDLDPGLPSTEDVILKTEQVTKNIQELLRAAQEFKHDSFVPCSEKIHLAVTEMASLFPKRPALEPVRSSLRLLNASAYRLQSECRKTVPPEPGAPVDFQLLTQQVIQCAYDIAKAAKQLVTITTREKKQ
UniProt P27361: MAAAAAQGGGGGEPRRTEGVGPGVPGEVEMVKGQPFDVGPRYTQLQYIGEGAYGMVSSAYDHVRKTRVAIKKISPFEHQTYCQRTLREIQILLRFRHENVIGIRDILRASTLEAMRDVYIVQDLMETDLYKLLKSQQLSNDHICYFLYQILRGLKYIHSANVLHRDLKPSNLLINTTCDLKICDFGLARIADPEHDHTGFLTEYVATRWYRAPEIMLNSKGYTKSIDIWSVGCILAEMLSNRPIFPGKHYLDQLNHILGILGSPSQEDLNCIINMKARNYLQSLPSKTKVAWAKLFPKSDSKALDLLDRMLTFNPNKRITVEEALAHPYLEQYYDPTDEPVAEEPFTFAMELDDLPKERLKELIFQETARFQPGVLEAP
UniProt P28482: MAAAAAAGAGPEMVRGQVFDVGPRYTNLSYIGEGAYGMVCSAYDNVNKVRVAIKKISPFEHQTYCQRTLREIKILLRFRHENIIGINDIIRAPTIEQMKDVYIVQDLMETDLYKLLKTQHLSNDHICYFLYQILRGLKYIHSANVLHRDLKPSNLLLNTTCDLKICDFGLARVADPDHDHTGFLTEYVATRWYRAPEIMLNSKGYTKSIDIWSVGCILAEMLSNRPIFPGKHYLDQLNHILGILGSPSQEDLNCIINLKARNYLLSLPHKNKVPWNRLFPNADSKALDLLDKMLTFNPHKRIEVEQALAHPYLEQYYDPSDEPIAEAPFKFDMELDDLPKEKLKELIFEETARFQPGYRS
UniProt Q14155: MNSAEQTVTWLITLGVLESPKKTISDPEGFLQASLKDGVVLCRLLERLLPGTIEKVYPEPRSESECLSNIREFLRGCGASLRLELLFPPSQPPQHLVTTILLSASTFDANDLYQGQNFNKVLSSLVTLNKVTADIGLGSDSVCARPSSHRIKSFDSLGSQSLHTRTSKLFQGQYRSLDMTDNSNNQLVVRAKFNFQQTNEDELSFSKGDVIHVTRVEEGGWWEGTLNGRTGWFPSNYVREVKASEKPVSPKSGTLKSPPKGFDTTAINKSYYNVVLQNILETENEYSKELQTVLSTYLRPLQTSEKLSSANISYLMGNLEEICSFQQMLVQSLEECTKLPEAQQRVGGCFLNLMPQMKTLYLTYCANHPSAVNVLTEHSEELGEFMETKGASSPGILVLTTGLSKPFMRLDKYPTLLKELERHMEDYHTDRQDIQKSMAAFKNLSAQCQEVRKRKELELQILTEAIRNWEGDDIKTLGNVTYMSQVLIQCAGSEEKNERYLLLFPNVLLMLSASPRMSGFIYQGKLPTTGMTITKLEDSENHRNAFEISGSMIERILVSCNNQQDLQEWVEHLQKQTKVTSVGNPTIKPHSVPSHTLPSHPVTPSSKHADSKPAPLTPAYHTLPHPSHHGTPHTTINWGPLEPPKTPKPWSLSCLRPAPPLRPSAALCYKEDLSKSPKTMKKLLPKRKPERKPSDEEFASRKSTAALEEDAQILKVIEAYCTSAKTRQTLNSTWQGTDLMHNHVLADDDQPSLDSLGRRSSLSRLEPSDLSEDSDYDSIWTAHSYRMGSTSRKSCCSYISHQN

TAP–ADRA1D (human) [7] = target: TAP–ADRA1D (human) (UniProt P25100); experiment: affinity purification with mass spectrometry; TAP/MS; TAP–ADRA1D transfected in A375 cells
TAP–ADRA1D (human) [8] = target: TAP–ADRA1D (human) (UniProt P25100); experiment: affinity purification with mass spectrometry; TAP/MS; TAP–ADRA1D transfected in HeLa cells
TAP–ADRA1D (human) [9] = target: TAP–ADRA1D (human) (UniProt P25100); experiment: affinity purification with mass spectrometry; TAP/MS; TAP–ADRA1D transfected in SW480 cells

binding (TAP-SCRIB (human) [1]): binds
binding (TAP-SCRIB (human) [2]): binds
binding (TAP-SCRIB (human) [3]): binds
Molecule: GIT1 (from UniProt Q9Y2X7 1-761)

binding (TAP–ADRA1D (human) [4]): binds
Molecule: MAPK3 (from UniProt P27361 1-379)

binding (TAP–ADRA1D (human) [5]): binds
binding (TAP–ADRA1D (human) [4]): binds
Molecule: MAPK1 (from UniProt P28482 1-360)

binding (TAP-SCRIB (human) [2]): binds
Molecule: ADRA1D (ectopic, co-expressed with TAP-SCRIB) (from UniProt P25100 1-572) (receptor)

binding (TAP-SCRIB (human) [1]): binds
binding (TAP-SCRIB (human) [2]): binds
binding (TAP-SCRIB (human) [3]): binds
Molecule: ARHGEF7 (from UniProt Q14155 1-803)

binding (TAP-SCRIB (human) [1]): binds
binding (TAP-SCRIB (human) [2]): binds
binding (TAP-SCRIB (human) [3]): binds
B1: ARHGEF6 (protein, UniProt Q15052 1-776)
chain: MNPEEQIVTWLISLGVLESPKKTICDPEEFLKSSLKNGVVLCKLINRLMPGSVEKFCLDPQTEADCINNINDFLKGCATLQVEIFDPDDLYSGVNFSKVLSTLLAVNKATEDQLSERPCGRSSSLSAANTSQTNPQGAVSSTVSGLQRQSKTVEMTENGSHQLIVKARFNFKQTNEDELSVCKGDIIYVTRVEEGGWWEGTLNGRTGWFPSNYVREIKSSERPLSPKAVKGFETAPLTKNYYTVVLQNILDTEKEYAKELQSLLVTYLRPLQSNNNLSTVEVTSLLGNFEEVCTFQQTLCQALEECSKFPENQHKVGGCLLSLMPHFKSMYLAYCANHPSAVNVLTQHSDELEQFMENQGASSPGILILTTNLSKPFMRLEKYVTLLQELERHMEDTHPDHQDILKAIVAFKTLMGQCQDLRKRKQLELQILSEPIQAWEGEDIKNLGNVIFMSQVMVQYGACEEKEERYLMLFSNVLIMLSASPRMSGFIYQGKIPIAGTVVTRLDEIEGNDCTFEITGNTVERIVVHCNNNQDFQEWLEQLNRLIRGPASCSSLSKTSSSSCSAHSSFSSTGQPRGPLEPPQIIKPWSLSCLRPAPPLRPSAALGYKERMSYILKESSKSPKTMKKFLHKRKTERKPSEEEYVIRKSTAALEEDAQILKVIEAYCTSANFQQGHGSSTRKDSIPQVLLPEEEKLIIEETRSNGQTIMEEKSLVDTVYALKDEVRELKQENKRMKQCLEEELKSRRDLEKLVRRLLKQTDECIRGESSSKTSILP

binding [6]: binds
B2: PPP6R1 (protein, UniProt Q9UPN7 1-881)
chain: MFWKFDLHTSSHLDTLLEREDLSLPELLDEEDVLQECKVVNRKLLDFLLQPPHLQAMVAWVTQEPPDSGEERLRYKYPSVACEILTSDVPQINDALGADESLLNRLYGFLQSTGSLNPLLASFFSKVMGILINRKTDQLVSFLRKKDDFVDLLLQHIGTSAIMDLLLRLLTCVERPQLRQDVVNWLNEEKIVQRLIEQIHPSKDENQHSNASQSLCDIIRLSREQMIQVQDSPEPDQLLATLEKQETIEQLLSNMFEGEQSQSVIVSGIQVLLTLLEPRRPRSESVTVNSFFSSVDGQLELLAQGALESTVSSVGALHALRPRLSCFHQLLLEPPKLEPLQMTWGMLAPPLGNTRLHVVKLLASALSANDAALTHELLALDVPNTMLDLFFHYVFNNFLHAQVEGCVSTMLSLGPPPDSSPETPIQNPVVKHLLQQCRLVERILTSWEENDRVQCAGGPRKGYMGHLTRVAGALVQNTEKGPNAEQLRQLLKELPSEQQEQWEAFVSGPLAETNKKNMVDLVNTHHLHSSSDDEDDRLKEFNFPEEAVLQQAFMDFQMQRMTSAFIDHFGFNDEEFGEQEESVNAPFDKTANITFSLNADDENPNANLLEICYKDRIQQFDDDEEEEDEEEAQGSGESDGEDGAWQGSQLARGARLGQPPGVRSGGSTDSEDEEEEDEEEEEDEEGIGCAARGGATPLSYPSPGPQPPGPSWTATFDPVPTDAPTSPRVSGEEELHTGPPAPQGPLSVPQGLPTQSLASPPARDALQLRSQDPTPPSAPQEATEGSKVTEPSAPCQALVSIGDLQATFHGIRSAPSSSDSATRDPSTSVPASGAHQPPQTTEGEKSPEPLGLPQSQSAQALTPPPIPNGSAPEGPASPGSQ

binding (TAP–ADRA1D (human) [5]): binds
binding (TAP–ADRA1D (human) [7]): binds
binding (TAP–ADRA1D (human) [4]): binds
binding (TAP–ADRA1D (human) [8]): binds
binding (TAP–ADRA1D (human) [9]): binds
B3: DTNB (protein, UniProt O60941 1-627)
chain: MIEESGNKRKTMAEKRQLFIEMRAQNFDVIRLSTYRTACKLRFVQKRCNLHLVDIWNMIEAFRDNGLNTLDHTTEISVSRLETVISSIYYQLNKRLPSTHQISVEQSISLLLNFMIAAYDSEGRGKLTVFSVKAMLATMCGGKMLDKLRYVFSQMSDSNGLMIFSKFDQFLKEVLKLPTAVFEGPSFGYTEHSVRTCFPQQRKIMLNMFLDTMMADPPPQCLVWLPLMHRLAHVENVFHPVECSYCRCESMMGFRYRCQQCHNYQLCQNCFWRGHAGGPHSNQHQMKEHSSWKSPAKKLSHAISKSLGCVPTREPPHPVFPEQPEKPLDLAHIVPPRPLTNMNDTMVSHMSSGVPTPTKRLQYSQDIPSHLADEHALIASYVARLQHCARVLDSPSRLDEEHRLIARYAARLAAEAGNVTRPPTDLSFNFDANKQQRQLIAELENKNREILQEIQRLRLEHEQASQPTPEKAQQNPTLLAELRLLRQRKDELEQRMSALQESRRELMVQLEELMKLLKEEEQKQAAQATGSPHTSPTHGGGRPMPMPVRSTSAGSTPTHCPQDSLSGVGGDVQEAFAQGTRRNLRNDLLVAADSITNTMSSLVKELHSAEEGAEEEEEKMQNGKDRG

binding (TAP–ADRA1D (human) [8]): binds
B4: SNTA, endogenous (protein, UniProt Q13424 1-505)
chain: MASGRRAPRTGLLELRAGAGSGAGGERWQRVLLSLAEDVLTVSPADGDPGPEPGAPREQEPAQLNGAAEPGAGPPQLPEALLLQRRRVTVRKADAGGLGISIKGGRENKMPILISKIFKGLAADQTEALFVGDAILSVNGEDLSSATHDEAVQVLKKTGKEVVLEVKYMKDVSPYFKNSTGGTSVGWDSPPASPLQRQPSSPGPTPRNFSEAKHMSLKMAYVSKRCTPNDPEPRYLEICSADGQDTLFLRAKDEASARSWATAIQAQVNTLTPRVKDELQALLAATSTAGSQDIKQIGWLTEQLPSGGTAPTLALLTEKELLLYLSLPETREALSRPARTAPLIATRLVHSGPSKGSVPYDAELSFALRTGTRHGVDTHLFSVESPQELAAWTRQLVDGCHRAAEGVQEVSTACTWNGRPCSLSVHIDKGFTLWAAEPGAARAVLLRQPFEKLQMSSDDGASLLFLDFGGAEGEIQLDLHSCPKTIVFIIHSFLSAKVTRLGLLA

From paper PMC4658663
